According to article PMC9078569, “Understanding the inhibitory mechanism of tea polyphenols against tyrosinase using fluorescence spectroscopy, cyclic voltammetry, oximetry, and molecular simulations” (RSC Advances, 2018):

Test system: Tyrosinase (TYR, EC1.14.18.1) from mushroom
Experiment: Cyclic voltammetry of TPs on glassy carbon electrode modified by MWCNT and tyrosinase
Conditions: CV, 50 mV s^−1, pH 6.5 phosphate buffer

With `Oc1cc(O)c2c(c1)OC(c1ccc(O)c(O)c1)C(O)C2` (single isomer, unassigned; (+)) [Catechin, (+)-catechin] as the molecule, how does the “first oxidation peak potential (ring B)” value read?
The value was 0.26 V.

With `O=C(OC1Cc2c(O)cc(O)cc2OC1c1ccc(O)c(O)c1)c1cc(O)c(O)c(O)c1` (single isomer, unassigned; (-)) [ECG, (−)-epicatechin gallate] as the molecule, how does the “first oxidation peak potential (ring B)” value read?
The value was 0.27 V.

Which “first oxidation peak potential (ring B)” value does the source give for `O=C(OC1Cc2c(O)cc(O)cc2OC1c1cc(O)c(O)c(O)c1)c1cc(O)c(O)c(O)c1` (single isomer, unassigned; (-)) [EGCG, (−)-epigallocatechin-3-O-gallate] here?
Its value is 0.21 V.
